Assay results: patent US20070117768

By UniProt entry, the sequences of proteins in these tests, tags left out. Residues count along the entry.
UniProt P07996, 19-1170: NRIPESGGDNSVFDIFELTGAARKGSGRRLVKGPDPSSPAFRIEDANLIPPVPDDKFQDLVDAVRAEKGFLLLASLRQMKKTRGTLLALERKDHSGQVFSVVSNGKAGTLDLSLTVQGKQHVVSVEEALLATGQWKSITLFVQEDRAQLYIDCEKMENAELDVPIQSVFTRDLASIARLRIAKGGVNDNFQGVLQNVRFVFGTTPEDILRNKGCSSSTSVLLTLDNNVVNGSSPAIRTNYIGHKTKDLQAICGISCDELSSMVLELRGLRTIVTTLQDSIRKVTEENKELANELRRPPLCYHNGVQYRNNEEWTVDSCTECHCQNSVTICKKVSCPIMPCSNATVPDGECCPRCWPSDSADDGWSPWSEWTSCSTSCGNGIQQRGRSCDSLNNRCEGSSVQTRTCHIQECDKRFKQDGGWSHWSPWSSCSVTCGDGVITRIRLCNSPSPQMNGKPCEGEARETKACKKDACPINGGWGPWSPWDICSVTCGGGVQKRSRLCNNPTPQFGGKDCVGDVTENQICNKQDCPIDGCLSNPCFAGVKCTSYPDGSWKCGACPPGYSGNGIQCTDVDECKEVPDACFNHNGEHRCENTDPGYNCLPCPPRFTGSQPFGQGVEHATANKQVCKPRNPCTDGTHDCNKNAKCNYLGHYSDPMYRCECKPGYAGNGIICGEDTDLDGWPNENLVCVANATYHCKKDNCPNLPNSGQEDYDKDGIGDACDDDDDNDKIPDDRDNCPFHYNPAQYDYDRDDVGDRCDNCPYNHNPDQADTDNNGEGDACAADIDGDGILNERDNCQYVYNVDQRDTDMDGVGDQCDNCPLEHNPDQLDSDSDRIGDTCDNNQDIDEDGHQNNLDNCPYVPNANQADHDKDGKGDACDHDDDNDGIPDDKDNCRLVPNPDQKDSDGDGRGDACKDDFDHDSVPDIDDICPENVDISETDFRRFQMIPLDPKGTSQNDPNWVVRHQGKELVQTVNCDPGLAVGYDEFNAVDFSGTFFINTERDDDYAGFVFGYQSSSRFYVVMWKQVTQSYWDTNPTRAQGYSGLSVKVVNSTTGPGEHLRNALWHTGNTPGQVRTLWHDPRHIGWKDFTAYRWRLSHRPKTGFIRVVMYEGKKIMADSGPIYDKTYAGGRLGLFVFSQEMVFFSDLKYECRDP

Biological target: thrombospondin-1 (TSP-1) (UniProt P07996)
Assay: activity in cells
Conditions: 2'-NH2 on all U and C, inhibition of TSP-1-induced HUVEC apoptosis, direct binding not measured, protein in cells

Sequence: GGGAGACGAUAUUCGUCCAUCACCGGACGGGACCAGAGGUGCCGCUGUCCGACAUGGA [aptamer 89-2]
- functional effect of the aptamer (50 nM, variant of aptamer 89): 83.8 % inhibition

Sequence: GGGAGACGAUAUUCGUCCAUCACCGGACGGGACCAGAGGUGCCGCUGUCCGACUGAAUUCUCGACC [aptamer 89]
- functional effect of the aptamer (50 nM): 91.2 % inhibition
- functional effect of the aptamer (150 nM, 72 h, 95.65% at 300 nM): 95.2 % inhibition

Sequence: GGGAGACGAUAUUCGUCCAUCGGGAGCAGGGAAGGGGGCCGCUGUCCGACUGAAUUCUCGACC [aptamer 82]
- functional effect of the aptamer (150 nM, 72 h, 79.32% at 300 nM): 66 % inhibition
